Laboratory results as given in patent publication US10876089B2, “Apparatus and method for high-fidelity podocyte cultivation” (priority 2016, dated 2020).
Entries after “also recorded” stand apart in the source; their conditions may differ. For at least one compound, name, drawing or mass did not settle the structure.

System: murine nephrin gene (NPHS1) in E11 murine podocytes
Test: PAN stimulation of differentiated podocytes, nephrin gene expression by RT-qPCR
Assay type: cell-based
Details: high dose of PAN; Dex 100 nM given before PAN; microcurvature surface
Description: On day 9, cells were washed with warm, non-supplemented RPMI 1640 basal media prior to lysing and RNA isolation. A High Pure RNA Isolation Kit (Roche) was used according to manufacturer's instructions, using 50 μL of elution buffer for the final step. Each sample from the study consisted of 3 individual wells pooled together, to ensure that a sufficient amount of RNA was being collected. Thus, 9 wells were seeded for each group to generate n=3 samples per condition. Isolated RNA was converted to complementary DNA (cDNA) using the High Capacity cDNA Reverse Transcription Kit (Applied Biosystems, USA) for ensuing PCR applications. RNA solutions were diluted to a final 7.5 ng/μL in a total reaction volume of 60 μL. Real-time PCR was run on the generated cDNA using the TaqMan Gene Expression Assay (Applied Biosystems). cDNA was diluted to 3.33 ng/μL in a volume of 9 μL, for a total of 30 ng cDNA per reaction. […] Expression of murine nephrin gene (NPHS1, Thermo Fisher Scientific) and the housekeeping gene Beta-2-Microglobulin (B2M, Thermo Fisher Scientific) was determined using relative quantification analysis (28), where C57/bl6 mouse whole kidney cDNA was used as a positive control and as a normalizer in calculations. […]

For `C[C@@H]1C[C@H]2[C@@H]3CCC4=CC(=O)C=C[C@]4(C)[C@@]3(F)[C@@H](O)C[C@]2(C)[C@@]1(O)C(=O)CO` [Dex, dexamethasone], the “protective effect on podocytes: nephrin gene expression of PAN-treated podocytes in (+)ATRA (+)Dex media vs PAN-free control group” value was “no significant difference; also recorded: protective effects”.
